Our source for the binding values is patent publication US7141541B1, “Use of peptides” (University Court of the University of Dundee, priority 1999, dated 2006).

Amino acid sequences for entries named in this document (tags omitted).
UniProt P06730: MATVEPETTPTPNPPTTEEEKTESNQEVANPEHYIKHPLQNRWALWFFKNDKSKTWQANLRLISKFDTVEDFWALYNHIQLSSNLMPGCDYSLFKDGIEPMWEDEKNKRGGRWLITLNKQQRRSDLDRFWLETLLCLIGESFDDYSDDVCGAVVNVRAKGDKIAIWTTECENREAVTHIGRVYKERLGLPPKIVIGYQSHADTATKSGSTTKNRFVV

This assay concerns the target T1, recombinant human eIF4E (human, UniProt P06730 1-217, limits assumed).
T1 construct: also called in vitro translated human eIF4E; eukaryotic initiation factor 4E
The assay can be described thus: in vitro binding, as retold in the text.

No constants are given. Whether binding was seen depends on the method and setting. Some results given as binding are weak or reduced against the parent protein; the word gives no strength.

B1: wheat eIF4G(62-73)-Penetratin (peptide)
peptide: RVRYSRDQLLDLRQIKIWFQNRRMKWKK
modifications: N-terminal biotin on an N-terminal betaAla (biotinylated peptides of FIG. 12a)
Take B1: the binding result was “binds”.
